Some entries repeat one wording, which the source may state once for all of them.
These compounds were tested on Probandinnen (assay: Preselection smelling test: subjects choose fragrances whose scent character they find calming). Settings: 0,5 %ig in Propylenglykol; 10 Probandinnen, 20 bis 50 Jahre; subjective choice by smelling.
Format: in vivo, Menschen

Structure (SMILES) | Duftcharakter, wie von den Probandinnen empfunden
O=C(OCc1ccccc1)c1ccccc1 [Benzyl benzoate] | neutrale Düfte
CCCCCCOC(=O)c1ccccc1O [Hexyl salicylate] | neutrale Düfte
C=CC(C)CCCC(C)(C)O (stereo not shown) [2,6-Dimethyl-7-octen-2-ol] | Düfte mit beruhigendem Duftcharakter
CCCCCCCC=O [Octanal] | Düfte mit beruhigendem Duftcharakter
CCCCCOC(=O)c1ccccc1O [Amyl salicylate] | eher stimulierend
CC(C)=CCCC(C)CCO (stereo not shown) [Citronellol] | eher stimulierend
CC(=O)C1=C(C)[C@@H]2C[C@@]3(C1)[C@H](C)CC[C@H]3C2(C)C [Methyl cedryl ketone] | neutrale Düfte
OCCc1ccccc1 [Phenylethyl alcohol] | neutrale Düfte
CCCCCCC1(C)CCC(=O)O1 (stereo not shown) [5-hexyldihydro-5-methyl-2(3H)-furanone] | Düfte mit beruhigendem Duftcharakter
C=C(C)C1CC=C(C)CC1 (stereo not shown) [Limonen] | eher stimulierend
CC(=O)CCC=C(C)C [6-Methyl-5-Hepten-2-one] | Düfte mit beruhigendem Duftcharakter
CCCCCCC(C)=O [Octan-2-one] | Düfte mit beruhigendem Duftcharakter
CCCCCC(C)=O [Heptan-2-one] | Düfte mit beruhigendem Duftcharakter
CCCCCC1CCCC(=O)O1 (stereo not shown) [Tetrahydro-6-pentyl-2H-pyran-2-one] | Düfte mit beruhigendem Duftcharakter
CCCCCCCC(C)=O [Nonan-2-one] | Düfte mit beruhigendem Duftcharakter
C=CC(C)(O)CCC=C(C)C (stereo not shown) [Linalool] | beruhigende Duftstoffe
CCCCCC1C(=O)CCC1CC(=O)OC (stereo not shown) [Methyl dihydrojasmonate] | neutrale Düfte
O=C(OCc1ccccc1)c1ccccc1O [Benzyl salicylate] | neutrale Düfte
C[C@@H]1CC[C@H]2C(C)(C)[C@H]3C[C@@]12CC[C@@]3(C)O [Cedrol] | beruhigende Duftstoffe
